Experimental data published in US12358949B2, “Defensin fragments for use in therapy or prophylaxis” (priority 2019, dated 2025).
Not every detail of the peptide structures is certain; ends, links or a residue may be inferred. Where a SMILES comes first, the peptide text is derived from it.

Tests used:
Type in all cases: cell-based
[1] = test system: E. coli BW 25113 mutants (ΔwaaG, ΔwaaY, ΔwaaP); experiment: Turbidity assay on LPS cell wall mutants; details: all the described E. coli mutants
[2] = test system: S. aureus SA113 ΔmprF mutant; experiment: Turbidity assay on cell wall mutants; details: S. aureus ΔmprF mutant lacking L-lysin
[3] = test system: S. aureus SA113 ΔtarH mutant; experiment: Turbidity assay on cell wall mutants; details: additional teichoic acid
pathogenic bacteria = experiment: Radial diffusion assay, HD-5 fragments; details: pathogenic Gram-positive and Gram-negative bacteria (FIG. 4)
Description: A heat map system with high activity (inhibition zone in the RDA>5 mm), low activity (2.5 to 5 mm) and no activity (2.5 mm) was used.
Antimicrobial activity of all peptides was tested with a modified radial diffusion assay from Lehrer et al^12 Shortly described, log-phase bacteria grew (anaerobic bacteria with AnaeroGen, Oxoid in anaerobic jars) in liquid tryptic soy broth (TSB) (Becton Dickinson). After several wash steps in 10 mM sodium phosphate buffer pH 7.4, 4×10^6 cfu/ml was used per assay. To measure the antibacterial effect of the identified peptide fragments, the bacteria were incubated in 10 mM sodium phosphate (pH 7.4) containing 0.3 mg/ml TSB powder and 1% (w/v) low EEO-agarose (Applichem). Peptide fragments were then pipetted into punched wells and allowed to diffuse for 3 hours at 37° C. After that a nutrient rich gel with 6% TSB (w/v) and 1% agarose in 10 mM sodium phosphate buffer was poured on top of the first gel. After 24 hours the inhibition zones were measured. […] All experiments were carried out at least three times.

human PBMCs = experiment: Cytokine response of LPS stimulated PBMCs (LEGENDplex); details: PBMCs + 10 μg/ml LPS; 24 h; not statistically significant

C[C@H](N)C(=O)N[C@H](C(=O)N[C@@H](CS)C(=O)N[C@@H](Cc1ccc(O)cc1)C(=O)N[C@@H](CS)C(=O)N[C@@H](CCCNC(=N)N)C(=O)N[C@H](C(=O)NCC(=O)N[C@@H](CCCNC(=N)N)C(=O)O)[C@@H](C)O)[C@@H](C)O [HD-51-9] (H-ATCYCRTGR-OH; N-terminus and C-terminus assumed)
concentration with bactericidal effects [1]: approximately 12.5 μM
antimicrobial activity, in words [2]: bactericidal effects
antimicrobial activity, in words [3]: decreased the antimicrobial effects
antimicrobial activity in radial diffusion assay (pathogenic bacteria): strong effect on the growth of every tested bacterium
IFN-γ production (human PBMCs): dose dependent tendency to reduce
IL-8 production (human PBMCs): dose dependent tendency to reduce
IL-10 production (human PBMCs): dose dependent tendency to increase
